Earlier results in US11648199B2 (AI Therapeutics, Inc, priority 2014, dated 2023).

Details: benzyl alcohol, chloroform, acetone, and acetonitrile; cited from earlier work

CO[C@H]1C[C@@H]2CC[C@@H](C)[C@@](O)(O2)C(=O)C(=O)N2CCCC[C@H]2C(=O)O[C@H]([C@H](C)C[C@@H]2CC[C@@H](O)[C@H](OC)C2)CC(=O)[C@H](C)/C=C(\C)[C@@H](O)[C@@H](OC)C(=O)[C@H](C)C[C@H](C)/C=C/C=C/C=C/1C [Rapamycin, (3 S,6R,7E,9R,10R,12R,14S,15E,17E,19E,21S,23 S,26R,27R,34aS)-9,10,12,13,-14,21,22,23,24,25,26,27,32,33,34,34a-hexadecahydro-9,27-dihydroxy-3-[(1R)-2-[(1S,3R,4R)-4-hydroxy-3-methoxycyclohexyl]-1-methylethyl]-10,21-dimethox-y-6,8,12,14,20,26-hexamethyl-23,27-epoxy-3H-pyrido[2,1-c][1,4]oxaazacyclohentriacontine-1,5,11,28,29(4H,6H,31H)-pentone]
solubility in organic solvents: freely soluble
